This is a selection; strong and weak results do not stand in their true shares.

Amino acid sequences for entries named in this document (tags omitted). A change or cut given only in a name is not applied to a line headed by its entry.
UniProt Q56VL3: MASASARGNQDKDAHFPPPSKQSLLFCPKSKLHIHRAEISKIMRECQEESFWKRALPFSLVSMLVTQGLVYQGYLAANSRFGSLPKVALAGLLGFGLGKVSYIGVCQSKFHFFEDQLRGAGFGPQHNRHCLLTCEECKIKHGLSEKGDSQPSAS
UniProt Q15185: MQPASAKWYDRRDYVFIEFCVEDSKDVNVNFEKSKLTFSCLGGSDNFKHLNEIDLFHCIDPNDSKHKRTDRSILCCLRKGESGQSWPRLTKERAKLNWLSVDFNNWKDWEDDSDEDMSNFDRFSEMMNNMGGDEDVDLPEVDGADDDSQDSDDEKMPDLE
UniProt Q15365, whole entry, looked up: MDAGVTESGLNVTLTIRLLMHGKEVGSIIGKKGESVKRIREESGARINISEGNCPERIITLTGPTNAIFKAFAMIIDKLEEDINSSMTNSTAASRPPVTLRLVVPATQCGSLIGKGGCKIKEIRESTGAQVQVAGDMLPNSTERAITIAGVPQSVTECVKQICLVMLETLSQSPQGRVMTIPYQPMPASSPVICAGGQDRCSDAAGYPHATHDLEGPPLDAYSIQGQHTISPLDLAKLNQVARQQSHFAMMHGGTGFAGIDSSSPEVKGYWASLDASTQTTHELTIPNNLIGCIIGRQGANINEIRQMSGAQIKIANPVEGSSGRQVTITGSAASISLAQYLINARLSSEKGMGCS
UniProt Q3LXA3: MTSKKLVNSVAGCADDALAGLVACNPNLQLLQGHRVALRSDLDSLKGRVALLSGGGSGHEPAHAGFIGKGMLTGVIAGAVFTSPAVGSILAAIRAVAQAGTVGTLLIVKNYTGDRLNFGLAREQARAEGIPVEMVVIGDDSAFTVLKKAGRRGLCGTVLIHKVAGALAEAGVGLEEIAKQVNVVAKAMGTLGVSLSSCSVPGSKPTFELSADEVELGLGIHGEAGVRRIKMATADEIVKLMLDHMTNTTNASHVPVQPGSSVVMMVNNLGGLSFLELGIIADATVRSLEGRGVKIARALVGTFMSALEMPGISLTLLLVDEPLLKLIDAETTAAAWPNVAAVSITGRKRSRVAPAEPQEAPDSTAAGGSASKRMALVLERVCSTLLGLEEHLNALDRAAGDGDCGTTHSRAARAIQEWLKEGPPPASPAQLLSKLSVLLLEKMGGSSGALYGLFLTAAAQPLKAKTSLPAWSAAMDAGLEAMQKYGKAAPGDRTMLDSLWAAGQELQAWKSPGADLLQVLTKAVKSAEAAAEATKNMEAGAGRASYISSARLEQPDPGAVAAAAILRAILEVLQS
UniProt Q32MZ4: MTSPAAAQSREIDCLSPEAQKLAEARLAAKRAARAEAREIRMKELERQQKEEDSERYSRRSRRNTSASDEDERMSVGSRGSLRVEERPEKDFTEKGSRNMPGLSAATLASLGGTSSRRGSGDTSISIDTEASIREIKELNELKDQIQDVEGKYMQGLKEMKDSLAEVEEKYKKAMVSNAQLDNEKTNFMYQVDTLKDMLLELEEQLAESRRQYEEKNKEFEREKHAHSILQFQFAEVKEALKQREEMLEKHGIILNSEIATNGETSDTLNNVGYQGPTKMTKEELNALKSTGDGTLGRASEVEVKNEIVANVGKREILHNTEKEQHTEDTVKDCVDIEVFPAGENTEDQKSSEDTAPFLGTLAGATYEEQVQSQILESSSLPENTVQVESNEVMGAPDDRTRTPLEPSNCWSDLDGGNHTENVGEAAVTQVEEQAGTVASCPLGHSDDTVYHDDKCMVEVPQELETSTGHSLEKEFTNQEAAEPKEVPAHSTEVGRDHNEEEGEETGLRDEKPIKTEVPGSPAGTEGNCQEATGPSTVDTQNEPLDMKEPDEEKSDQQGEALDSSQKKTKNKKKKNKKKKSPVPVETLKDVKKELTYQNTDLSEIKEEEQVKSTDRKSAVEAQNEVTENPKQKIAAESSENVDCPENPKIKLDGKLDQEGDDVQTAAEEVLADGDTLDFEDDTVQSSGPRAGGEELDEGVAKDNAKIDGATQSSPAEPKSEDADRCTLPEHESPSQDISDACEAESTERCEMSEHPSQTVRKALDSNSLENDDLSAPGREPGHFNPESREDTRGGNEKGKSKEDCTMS
UniProt Q16630, whole entry: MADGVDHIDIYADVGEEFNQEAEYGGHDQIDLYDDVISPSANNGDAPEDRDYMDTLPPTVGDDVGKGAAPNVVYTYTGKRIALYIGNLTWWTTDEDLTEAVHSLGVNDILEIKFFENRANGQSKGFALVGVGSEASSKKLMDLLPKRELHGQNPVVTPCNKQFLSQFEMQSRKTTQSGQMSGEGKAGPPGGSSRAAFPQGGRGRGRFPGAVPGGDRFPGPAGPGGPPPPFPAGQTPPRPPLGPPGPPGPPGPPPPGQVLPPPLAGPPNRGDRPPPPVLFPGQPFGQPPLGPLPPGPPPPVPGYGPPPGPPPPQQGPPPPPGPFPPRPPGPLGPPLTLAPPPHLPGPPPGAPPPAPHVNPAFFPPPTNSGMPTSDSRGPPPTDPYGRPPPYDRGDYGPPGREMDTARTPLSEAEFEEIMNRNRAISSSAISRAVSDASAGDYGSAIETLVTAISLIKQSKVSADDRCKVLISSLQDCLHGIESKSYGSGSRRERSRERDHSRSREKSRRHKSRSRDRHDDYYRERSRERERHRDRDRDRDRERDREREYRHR
UniProt Q15417: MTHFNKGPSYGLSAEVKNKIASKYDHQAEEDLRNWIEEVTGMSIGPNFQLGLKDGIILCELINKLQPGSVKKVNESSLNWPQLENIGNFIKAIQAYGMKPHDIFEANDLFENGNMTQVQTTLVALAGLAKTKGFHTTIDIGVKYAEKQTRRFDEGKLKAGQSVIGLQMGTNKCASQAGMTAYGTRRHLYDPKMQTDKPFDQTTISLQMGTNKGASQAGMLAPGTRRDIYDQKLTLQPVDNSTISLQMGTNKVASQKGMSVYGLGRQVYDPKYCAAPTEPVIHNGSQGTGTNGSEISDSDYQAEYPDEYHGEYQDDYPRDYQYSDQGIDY
UniProt Q15276: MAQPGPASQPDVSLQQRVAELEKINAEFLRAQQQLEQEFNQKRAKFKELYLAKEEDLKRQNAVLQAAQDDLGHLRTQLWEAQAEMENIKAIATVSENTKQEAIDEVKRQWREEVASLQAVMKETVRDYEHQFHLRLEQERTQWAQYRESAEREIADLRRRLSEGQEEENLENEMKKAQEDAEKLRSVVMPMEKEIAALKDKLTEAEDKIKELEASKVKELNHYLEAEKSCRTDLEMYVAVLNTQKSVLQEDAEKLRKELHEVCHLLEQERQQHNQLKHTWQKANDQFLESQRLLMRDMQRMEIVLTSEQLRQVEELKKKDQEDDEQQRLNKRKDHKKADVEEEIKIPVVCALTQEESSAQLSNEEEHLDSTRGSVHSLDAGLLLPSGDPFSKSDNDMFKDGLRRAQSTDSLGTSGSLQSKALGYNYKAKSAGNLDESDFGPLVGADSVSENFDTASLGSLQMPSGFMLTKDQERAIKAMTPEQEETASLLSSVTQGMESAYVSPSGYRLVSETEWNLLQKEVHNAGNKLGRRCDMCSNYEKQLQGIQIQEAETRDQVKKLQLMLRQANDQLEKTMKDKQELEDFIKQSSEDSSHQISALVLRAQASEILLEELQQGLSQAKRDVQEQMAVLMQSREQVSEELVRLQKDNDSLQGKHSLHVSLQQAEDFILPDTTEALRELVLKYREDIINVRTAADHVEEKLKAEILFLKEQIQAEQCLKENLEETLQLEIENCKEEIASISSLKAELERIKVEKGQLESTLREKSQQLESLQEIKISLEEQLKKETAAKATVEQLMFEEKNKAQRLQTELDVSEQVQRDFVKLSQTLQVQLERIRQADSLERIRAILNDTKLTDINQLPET
UniProt Q15334: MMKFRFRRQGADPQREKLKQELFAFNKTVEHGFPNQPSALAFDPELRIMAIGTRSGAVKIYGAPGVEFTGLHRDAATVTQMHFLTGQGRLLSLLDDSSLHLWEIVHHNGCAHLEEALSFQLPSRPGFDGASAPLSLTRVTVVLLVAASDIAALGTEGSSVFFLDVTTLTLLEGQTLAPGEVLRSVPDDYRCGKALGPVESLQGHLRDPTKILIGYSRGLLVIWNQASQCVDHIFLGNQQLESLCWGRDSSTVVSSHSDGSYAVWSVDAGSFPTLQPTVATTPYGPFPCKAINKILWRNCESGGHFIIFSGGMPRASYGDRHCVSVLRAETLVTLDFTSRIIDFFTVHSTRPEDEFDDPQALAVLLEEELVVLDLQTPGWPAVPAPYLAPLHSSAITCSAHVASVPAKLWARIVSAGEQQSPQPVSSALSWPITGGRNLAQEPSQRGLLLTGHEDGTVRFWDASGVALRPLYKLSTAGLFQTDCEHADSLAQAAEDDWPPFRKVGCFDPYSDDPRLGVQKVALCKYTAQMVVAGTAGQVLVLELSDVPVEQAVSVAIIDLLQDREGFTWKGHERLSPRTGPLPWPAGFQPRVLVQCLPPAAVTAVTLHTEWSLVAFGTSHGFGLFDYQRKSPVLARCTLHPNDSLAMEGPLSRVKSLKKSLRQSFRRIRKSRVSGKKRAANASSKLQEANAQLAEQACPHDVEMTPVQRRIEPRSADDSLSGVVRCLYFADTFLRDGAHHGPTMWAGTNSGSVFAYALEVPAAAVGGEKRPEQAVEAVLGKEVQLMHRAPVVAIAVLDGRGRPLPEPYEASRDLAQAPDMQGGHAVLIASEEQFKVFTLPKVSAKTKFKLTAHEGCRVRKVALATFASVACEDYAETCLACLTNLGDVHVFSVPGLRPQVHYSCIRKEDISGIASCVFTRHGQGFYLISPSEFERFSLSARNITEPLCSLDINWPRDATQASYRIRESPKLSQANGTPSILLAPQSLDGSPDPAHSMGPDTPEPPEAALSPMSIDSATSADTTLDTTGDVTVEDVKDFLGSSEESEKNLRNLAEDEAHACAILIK
UniProt Q16763: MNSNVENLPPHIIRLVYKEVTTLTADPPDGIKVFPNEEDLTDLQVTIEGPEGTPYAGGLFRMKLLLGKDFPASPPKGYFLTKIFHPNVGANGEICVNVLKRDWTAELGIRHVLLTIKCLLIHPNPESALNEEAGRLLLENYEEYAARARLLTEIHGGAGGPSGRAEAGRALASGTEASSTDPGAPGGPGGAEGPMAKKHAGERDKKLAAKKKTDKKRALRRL
UniProt Q16342: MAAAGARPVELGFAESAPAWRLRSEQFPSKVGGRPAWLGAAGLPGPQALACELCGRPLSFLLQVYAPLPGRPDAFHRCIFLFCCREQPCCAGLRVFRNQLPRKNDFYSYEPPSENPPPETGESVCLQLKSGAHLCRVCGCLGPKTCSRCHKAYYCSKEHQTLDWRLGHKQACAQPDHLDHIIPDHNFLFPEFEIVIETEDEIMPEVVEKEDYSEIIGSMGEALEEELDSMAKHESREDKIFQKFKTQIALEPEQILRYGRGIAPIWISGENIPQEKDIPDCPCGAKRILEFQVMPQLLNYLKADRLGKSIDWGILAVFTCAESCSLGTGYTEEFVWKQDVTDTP
UniProt Q15126: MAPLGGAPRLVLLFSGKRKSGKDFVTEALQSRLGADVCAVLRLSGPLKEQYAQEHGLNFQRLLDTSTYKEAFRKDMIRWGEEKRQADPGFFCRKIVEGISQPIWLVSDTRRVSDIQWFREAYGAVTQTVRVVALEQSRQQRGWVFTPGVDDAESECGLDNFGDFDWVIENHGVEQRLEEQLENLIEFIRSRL
UniProt Q53RE8: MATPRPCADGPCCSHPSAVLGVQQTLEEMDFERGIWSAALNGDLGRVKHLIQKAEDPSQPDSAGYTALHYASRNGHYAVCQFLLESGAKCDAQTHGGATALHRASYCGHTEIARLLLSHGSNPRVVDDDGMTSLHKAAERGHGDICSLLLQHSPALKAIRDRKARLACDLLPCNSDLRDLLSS
UniProt Q15048: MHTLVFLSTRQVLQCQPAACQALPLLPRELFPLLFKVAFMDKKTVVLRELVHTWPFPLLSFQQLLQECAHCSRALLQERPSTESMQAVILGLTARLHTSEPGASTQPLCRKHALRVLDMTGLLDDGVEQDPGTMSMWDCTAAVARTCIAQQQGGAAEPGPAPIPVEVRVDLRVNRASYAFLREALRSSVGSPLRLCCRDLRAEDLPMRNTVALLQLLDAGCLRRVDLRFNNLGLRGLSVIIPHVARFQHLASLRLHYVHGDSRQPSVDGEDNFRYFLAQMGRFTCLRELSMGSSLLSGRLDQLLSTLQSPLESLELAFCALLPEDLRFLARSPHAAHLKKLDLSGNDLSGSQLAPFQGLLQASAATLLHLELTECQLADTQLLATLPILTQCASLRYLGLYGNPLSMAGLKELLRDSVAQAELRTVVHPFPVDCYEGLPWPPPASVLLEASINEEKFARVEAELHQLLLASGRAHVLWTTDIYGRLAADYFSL
UniProt Q15181: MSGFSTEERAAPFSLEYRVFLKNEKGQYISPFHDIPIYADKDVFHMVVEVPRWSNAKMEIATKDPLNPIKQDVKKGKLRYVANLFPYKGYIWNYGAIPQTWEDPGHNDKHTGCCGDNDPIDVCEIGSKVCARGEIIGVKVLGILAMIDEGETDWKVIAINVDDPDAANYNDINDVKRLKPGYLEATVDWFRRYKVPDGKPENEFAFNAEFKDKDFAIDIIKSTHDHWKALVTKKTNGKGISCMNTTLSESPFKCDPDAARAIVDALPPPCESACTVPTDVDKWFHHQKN

Compound in this test: COC(=O)C#Cc1ccccc1 [methyl 3-phenylpropiolate]
Kind of test: log2 ratio of iodoacetamide-alkyne labeling of the cysteine site, DMSO over compound (competition); higher = stronger covalent engagement of the cysteine by the compound, active = 1 or more. As to conditions: 500 µM; treatment time 1 h; system: HEK293T cell lysate. Summed up:
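Electrophile (500 µM) or vehicle was added to HEK293T lysate (2 mg/mL) for 1 h at ambient temperature before iodoacetamide alkyne labelling (1 h) and click coupling to sCIP-TMT reagents. After pooling, overnight trypsin digestion at 37 °C, streptavidin enrichment and acid elution, peptides were measured by Orbitrap Eclipse LC-MS/MS with FAIMS and quantified in FragPipe. Each cysteine's log2 competition ratio compares mean control-channel with mean compound-channel reporter intensity, control over compound. Data came from duplicate channels across three replicates, excluding cysteines quantified in only one replicate.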
In the case of AMOT C741 (UniProt Q4VCS5), the “log2 ratio of iodoacetamide-alkyne labeling” value (“log2 ratio” below) is inactive: 0.547.

As for OCIAD2 C27 (UniProt Q56VL3), the “log2 ratio” value is inactive: 0.644.

In the case of SF3B3 C1179 (UniProt Q15393), the “log2 ratio” value is inactive: -0.0873.

As to SMAD2 C41 (UniProt Q15796), the “log2 ratio” value is inactive: 0.994.

Regarding PTGES3 C75 (UniProt Q15185), the “log2 ratio” value was inactive: -0.0232.

Regarding SHB C392 (UniProt Q15464), the “log2 ratio” value is inactive: 0.407.

ETFDH C387 (UniProt Q16134): the “log2 ratio” value is inactive: 0.534.

Take HERC1 C1941 (UniProt Q15751): the “log2 ratio” value is inactive: 0.763.

With UniProt Q2M389_C936, the “log2 ratio” value was inactive: 0.504.

For the target UniProt Q15365_C194, the “log2 ratio” value was active: 1.08.

Regarding UniProt Q3LXA3_C24, the “log2 ratio” value was inactive: 0.218.

In the case of LRRFIP1 C805 (UniProt Q32MZ4), the “log2 ratio” value was inactive: 0.434.

Consider LRRFIP1 C334 (UniProt Q32MZ4), for which the “log2 ratio” value is inactive: -0.0513.

Turning to CPSF6 C159 (UniProt Q16630), the “log2 ratio” value was inactive: 0.396.

CNN3 C173 (UniProt Q15417): the “log2 ratio” value is active: 1.01.

For RABEP1 C350 (UniProt Q15276), the “log2 ratio” value is inactive: 0.66.

For LLGL1 C947 (UniProt Q15334), the “log2 ratio” value is inactive: 0.0729.

As to UBE2S C118 (UniProt Q16763), the “log2 ratio” value was inactive: 0.158.

EFTUD2 C639 (UniProt Q15029): the “log2 ratio” value is inactive: 0.0251.

Regarding UniProt Q16512_C120, the “log2 ratio” value is inactive: 0.29.

Take PTGES3 C40 (UniProt Q15185): the “log2 ratio” value was inactive: -0.00848.

In the case of PDS5A C1084 (UniProt Q29RF7), the “log2 ratio” value is inactive: 0.189.

Take UniProt Q15365_C158: the “log2 ratio” value is inactive: 0.366.

Regarding UniProt Q15365_C109, the “log2 ratio” value was inactive: 0.524.

For the target CEP55 C359 (UniProt Q53EZ4), the “log2 ratio” value is inactive: 0.569.

For DLGAP5 C448 (UniProt Q15398), the “log2 ratio” value was inactive: 0.023.

As to PDCD2 C125 (UniProt Q16342), the “log2 ratio” value is inactive: 0.149.

On to HS1BP3 C287 (UniProt Q53T59), for which the “log2 ratio” value is inactive: 0.16.

For the target PMVK C38 (UniProt Q15126), the “log2 ratio” value was inactive: 0.115.

Regarding ANKRD39 C173 (UniProt Q53RE8), the “log2 ratio” value is inactive: 0.34.

LRRC14 C15 (UniProt Q15048): the “log2 ratio” value is inactive: 0.615.

Regarding LLGL1 C1059 (UniProt Q15334), the “log2 ratio” value was inactive: 0.241.

In the case of UniProt Q15286_C163, the “log2 ratio” value is inactive: 0.0486.

In the case of PDK2 C45 (UniProt Q15119), the “log2 ratio” value is inactive: 0.457.

As for LRRC14 C221 (UniProt Q15048), the “log2 ratio” value is inactive: -0.0893.

As to PPA1 C113 (UniProt Q15181), the “log2 ratio” value is inactive: 0.0789.

Regarding LLGL1 C636 (UniProt Q15334), the “log2 ratio” value was inactive: 0.538.

(Values after the supplement of paper PMC11006884.)
